Results taken from paper PMC10783636, “Chlorophyll biosynthesis under the control of arginine metabolism” (Cell Reports, 2023).
Read-outs that look alike come from different tables or passages of the source. Results are given in words; binding and its absence hold for the method and conditions named. Binding seen in cells or lysates may run through a third protein. Here binding means that the protein was enriched with, or labelled near, the bait; the list need not be complete. A no says only that the protein was not detected with the bait. For part of these data: Tags and fused reporters may be left off the sequences shown.

T1: 3×FLAG-tagged ArgD (N-acetylornithine aminotransferase) of Synechocystis sp. PCC 6803 (Synechocystis sp. PCC 6803) (UniProt P73133)
T1 sequence: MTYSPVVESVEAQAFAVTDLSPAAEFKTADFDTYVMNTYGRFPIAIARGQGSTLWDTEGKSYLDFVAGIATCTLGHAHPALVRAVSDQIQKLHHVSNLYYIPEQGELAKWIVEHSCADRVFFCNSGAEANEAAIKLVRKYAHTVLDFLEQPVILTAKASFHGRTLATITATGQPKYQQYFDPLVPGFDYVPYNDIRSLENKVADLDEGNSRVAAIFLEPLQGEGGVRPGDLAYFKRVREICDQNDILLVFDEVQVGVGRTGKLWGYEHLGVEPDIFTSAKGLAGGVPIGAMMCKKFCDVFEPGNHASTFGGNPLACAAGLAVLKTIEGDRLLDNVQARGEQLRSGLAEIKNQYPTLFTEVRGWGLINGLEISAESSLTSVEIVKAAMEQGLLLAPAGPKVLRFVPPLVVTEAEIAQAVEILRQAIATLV


Legend:
Assay in all cases: affinity purification with mass spectrometry; FLAG-tagged bait (f.ArgD or f.Gun4) isolated from the soluble (cytosolic) fraction of Synechocystis on anti-FLAG M2 affinity gel in buffer A (20 mM HEPES pH 7.4, 5 mM CaCl2, 10 mM MgCl2, 25% glycerol), eluted with 3xFLAG peptide; eluate separated by 2D BN/SDS-PAGE or SDS-PAGE, stained spots or bands identified by MS; WT control
[1] = target: T1, 3×FLAG-tagged ArgD (N-acetylornithine aminotransferase) of Synechocystis sp. PCC 6803 (Synechocystis sp. PCC 6803)
[2] = target: T1, 3×FLAG-tagged ArgD (N-acetylornithine aminotransferase) of Synechocystis sp. PCC 6803 (Synechocystis sp. PCC 6803); remark: listed apart in the source
[3] = target: 3×FLAG-tagged Gun4 of Synechocystis sp. PCC 6803 (Synechocystis sp. PCC 6803)

binding [1] | binding [2] | binding [3] | Molecule
no binding | – | – | fructose-1,6-biphosphatase of Synechocystis sp. PCC 6803 (enzyme)
no binding | – | – | Tryptophanyl t-RNA synthetase of Synechocystis sp. PCC 6803 (enzyme)
binds | – | – | Gun4 protein of Synechocystis sp. PCC 6803 (native)
– | binds | binds | cyanophycinase CphB of Synechocystis sp. PCC 6803 (native) (enzyme, UniProt P73832 1-271, looked up, cyanophycinase CphB, Synechocystis sp; PCC 6803, gene slr2001; printed as 29.4 kDa; Migrated like a large oligomer (>200 kDa) on the BN gel; source: endogenous, Synechocystis soluble fraction) MPLSSQPAILIIGGAEDKVHGREILQTFWSRSGGNDAIIGIIPSASREPLLIGERYQTIFSDMGVKELKVLDIRDRAQGDDSGYRLFVEQCTGIFMTGGDQLRLCGLLADTPLMDRIRQRVHNGEISLAGTSAGAAVMGHHMIAGGSSGEWPNRALVDMAVGLGIVPEIVVDQHFHNRNRMARLLSAISTHPELLGLGIDEDTCAMFERDGSVKVIGQGTVSFVDARDMSYTNAALVGANAPLSLHNLRLNILVHGEVYHQVKQRAFPRVT

More lines, now with the values behind:

Molecule | binding [1] | binding [2] | binding [3]
ChlH subunit of magnesium chelatase of Synechocystis sp. PCC 6803 (protein, UniProt P73020 1-1331) MFTNVKSTIRRVDPEALNGRQLLKVVYVVLESQYQSALSAAVRNINRTNSSLAIQLTGYLIEELRDPENYANFKHDVSEANLFIASLIFIEDLADKVVEAVTPYRDNLDAAIVFPSMPQVMRLNKMGSFSMAQLGQSKSAIAQFMKKRKENSSGAGFQDAMLKLLRTLPTVLKYLPVEKAQDARNFMLSFQYWLGGSQENLENFLLMLTDKYVYPDLGLDKLVNYQEPVVYPDMGIWHPLSMQMFENVKDYLEWYNQRPDISEDLKDPLAPCIGLIMQRTHLVTGDDAHYVGMVQELEAMGARVICVFSGGLDFSKPVNEYFWDKSVNGVEPLPIVDAVVSLTGFALVGGPARQDHPRAIESLKKLNRPYMCALPLVFQTTEEWEASDLGLHPIQVALQIAIPELDGAIEPIILSGRDGSTGRAIALQDRLEAIAQRAMKWANLRKKPKLDKKVAITVFSFPPDKGNVGTAAYLDVFGSIYEVMKGLQGNGYDVQDLPGSAKELMEAVIHDAQAQYNSPELNIAHRMSVEQYERLTPYSVRLEENWGKPPGHLNSDGQNLLIYGKEFGNVFIGVQPTFGYEGDPMRLLFSRSASPHHGFAAYYTYLNHIWKADAVLHFGTHGSLEFMPGKQMGMSGECYPDNLIGTIPNLYYYAANNPSEATIAKRRGYASTISYLTPPAENAGLYKGLQELNELIGSYQTLKDSGRGIQIVNTIMDQARICNLDQDVNLPDINAEEMDQGQRDTIVGSVYRKLMEIESRLLPCGLHVIGQPPSAEEAIATLVNIASLDREDEGIWALPTLIAESIGRNMEEIYRNSDKGILADVELLQDITLATRAAVAALVQEQINADGRVSFVSKLNFFKIGKKAPWVKSLCDSGYPNVNEEKLKPLFEYLEFCLEQVCADNEFGGLLQALEGEYVLPGPGGDPIRNPNVLPTGKNIHALDPQSIPTLAAVQSAKVVVDRLLERQRAENGGNYPETIASVLWGTDNIKTYGESLAQIMWMVGAKPVPDALGRVNKIELVPLEELGRPRIDVVVNCSGVFRDLFINQMNLLDQAVKLAAEADEPLEMNFVRKHALEQAEEMGIGVREAATRIFSNASGSYSSNVNLAVENSSWEDESELQEMYLKRKSFAFNSDNPGMMDQNRDMFERALKTADATFQNLDSSEISLTDVSHYFDSDPTKLISTLRDDGKAPAAYIADTTTANAQVRTLSETVRLDARTKLLNPKWYEGMLSHGYEGVRELSKRLVNTMGWSATAGAVDNWVYEDANSTFIKDEEMCKRLMDLNPNSFRRMVSTLLEVNGRGYWETSDENLERLQELYQEVEDRIEGVE | – | no binding | no binding
Pyruvate kinase 1 of Synechocystis sp. PCC 6803 (enzyme, UniProt Q55863 1-483) MPALINPVKFMRPLSHRTKIVATIGPASSSVEVIRQMVDAGMNVARLNFSHGSYEDHATMVRLLRSVEQEMDTPITLLQDLQGPKIRIGQLPGGEKQLREGEKVSLVPVEIGDRHPGAVGIDYPHLATEAKVGERILLDDGLLEMKVVSIQDPEVICEVVTGGILKSRKGVNLPGLVLTLPSMTTKDKQDLEFGLSQGIDWVSLSFVRKGEDIHTLKQFLAERGHPDLPVIAKIEKPQAIDNLEEIVAVSNGIMVARGDLGVEVNPEKVPRLQKEIIRRCNVRAIPVITATQMLDSMIQNSRPTRAEASDVANAILDGTDAVMLSGESAVGQYPVKSVQMLRKIAEETEVGLHLVNNPPIENTETHALSEALVVIDGILDLKYIVTFTTSGFTSLLASNQRPSVPVIAFTPSEKVYHSLNLVWGIIPFLINEEFDTFEDLIQQAEVLLRDRKMVEKGDQLLIMAGIPTKIPRGTNFLKIHRIS | – | – | binds
3×FLAG-tagged ArgD (N-acetylornithine aminotransferase) of Synechocystis sp. PCC 6803 (enzyme, UniProt P73133 1-429, looked up, N-acetylornithine aminotransferase ArgD, Synechocystis sp; PCC 6803, gene slr1022; synthetic argD gene with optimised codon usage cloned into pPD-NFLAG; f.ArgD printed as 49.8 kDa; also called f.ArgD; source: Synechocystis f.argD+/ΔargD or f.argD+/ΔcphB strain (psbAII promoter), soluble fraction; not shown: 3xFLAG, N-terminal, kept) MTYSPVVESVEAQAFAVTDLSPAAEFKTADFDTYVMNTYGRFPIAIARGQGSTLWDTEGKSYLDFVAGIATCTLGHAHPALVRAVSDQIQKLHHVSNLYYIPEQGELAKWIVEHSCADRVFFCNSGAEANEAAIKLVRKYAHTVLDFLEQPVILTAKASFHGRTLATITATGQPKYQQYFDPLVPGFDYVPYNDIRSLENKVADLDEGNSRVAAIFLEPLQGEGGVRPGDLAYFKRVREICDQNDILLVFDEVQVGVGRTGKLWGYEHLGVEPDIFTSAKGLAGGVPIGAMMCKKFCDVFEPGNHASTFGGNPLACAAGLAVLKTIEGDRLLDNVQARGEQLRSGLAEIKNQYPTLFTEVRGWGLINGLEISAESSLTSVEIVKAAMEQGLLLAPAGPKVLRFVPPLVVTEAEIAQAVEILRQAIATLV | – | – | binds
